# Where “and” joins values, the source holds several entries; their conditions need not be identical. Equal entries are not always repeated. Screen size: about 350,000 compounds; about 1,200 (0.34%) were called active. Inconclusive means that the source gave no clear call. Such entries were picked first, then a sample of the others. Calls come from the whole dose curve; as a rule, active = well fitted inhibition curve with a large enough effect; inconclusive = small, poorly fitted or top-dose-only effect; inactive = no such curve, though single readings can be large or run the other way. A potency beside an inconclusive call is a rough fit, not a confirmed value.
# Sequences of proteins named here, by UniProt entry; tags and fusion partners are left off.
# UniProt P27695, whole entry, looked up: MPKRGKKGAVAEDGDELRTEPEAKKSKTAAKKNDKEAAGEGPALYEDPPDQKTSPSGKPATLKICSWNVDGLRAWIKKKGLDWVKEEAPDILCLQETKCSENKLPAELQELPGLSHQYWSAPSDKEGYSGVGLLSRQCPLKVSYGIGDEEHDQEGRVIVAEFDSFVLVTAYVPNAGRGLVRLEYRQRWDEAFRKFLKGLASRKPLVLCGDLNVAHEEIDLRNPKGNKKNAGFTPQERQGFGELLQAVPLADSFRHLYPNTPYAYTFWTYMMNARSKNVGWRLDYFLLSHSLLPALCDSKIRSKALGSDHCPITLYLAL
# Molecular target: DNA repair nuclease/redox regulator APEX1 (Homo sapiens) (UniProt P27695)
# Assay: qHTS Assay for Inhibitors of the Human Apurinic/apyrimidinic Endonuclease 1 (APE1); note: nearly all actives have a fitted effect of over 55% in size;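 for activity change, negative = inhibition: plate controls were vehicle for no effect and reference inhibitor for full effect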
# Conditions: recombinant APE1, TAMRA/BHQ-2 abasic DNA cleavage fluorescence; activity change, negative = inhibition: at 65.8 µM (top of the series)
# Outline: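 Endonuclease cleavage of a quenched abasic-site DNA duplex (50 nM) by APE1 (0.75 nM) was tracked by TAMRA dequenching. Compounds were preincubated with enzyme 15 min at room temperature; data normalized to buffer-only and DMSO wells plus NSC13755 control.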
# Potency is the fitted concentration of half-maximal effect.
Compound,Potency,"activity change, negative = inhibition"
CC(=O)c1c(C)[nH]c(C(=O)OCc2cccc(Cl)c2)c1C,"inconclusive: 44.7 µM [inhibitor, single point]",–
NC1=NC[C@H](Cc2ccccc2)N1CCc1cccc(F)c1,"inconclusive: 25.1 µM [inhibitor, partial curve]",–
COc1ccc(-c2csc3nc(-c4cccnc4)nc(N4CCC(C(N)=O)CC4)c23)cc1OC,"inconclusive: 44.7 µM [inhibitor, single point]",–
Cc1cc(C(=O)CSc2nnc(-c3ccco3)o2)c(C)n1Cc1ccco1,"inconclusive: 31.6 µM [inhibitor, partial curve]",–
CC(C)(C)C(=O)Nc1ccc2oc(-c3cc(F)c(F)cc3Cl)nc2c1,"inconclusive: 0.0447 µM [inhibitor, full curve, poor fit]",–
COc1ccc(CNC(=O)c2ccc(Br)o2)cc1,"inconclusive: 5.62 µM [inhibitor, single point]",–
Nc1nnc(CC(=O)N/N=C/c2ccc(-c3ccc(F)cc3)o2)s1,inactive,–
Cn1ccc2cc3c(cc21)CCN3C(=O)Nc1cccnc1,"inconclusive: 3.98 µM [inhibitor, full curve]",–
CCN(CC)C(=O)C(=O)c1cc(C)n(-c2ccc(F)cc2)c1C,"inconclusive: 22.4 µM [inhibitor, partial curve]",–
N#CC(C#N)=C(N)/C(C#N)=C/c1cc(O)c(O)c(O)c1,"inactive and inconclusive: 28.2 µM [inhibitor, partial curve]",–
Cc1cccc(OCCSc2nc(N)cc(N)n2)c1,"inconclusive: 39.8 µM [inhibitor, single point]",–
Cc1cc(=O)[nH]c(N/N=C/c2ccc(OC(=O)c3cccnc3)cc2)n1,"inconclusive: 1.41 µM [inhibitor, full curve, poor fit]",–
COC(=O)C1=C(C)N(C)C(=O)NC1c1cc2c(cc1[N+](=O)[O-])OCO2 (configuration not stated),"inconclusive: 15.8 µM [inhibitor, single point]",–
Cc1ccc(-c2nc3cnccn3c2Nc2c(C)cccc2C)o1,"inconclusive: 39.8 µM [inhibitor, single point]",–
COc1cc(/C=N/Nc2ccc(F)cc2F)cc(OC)c1O,inactive,–
COc1ccc(CNCC(=O)Nc2ccccc2-n2cccc2)cc1,"inconclusive: 22.4 µM [inhibitor, single point]",–
COc1cccc(CN(C(=O)/C=C/c2ccco2)C2CCS(=O)(=O)C2)c1 (configuration not stated),inactive,–
CC1OC(OC2C(Oc3c(-c4ccc(O)cc4)oc4cc(O)cc(O)c4c3=O)OC(COC3O[C@@H](C)[C@H](O)[C@@H](O)C3O)C(O)C2O)C(O)C(O)C1O (some centres not stated),inactive,–
CCc1c2c(nc3cccc(OC)c13)OC(CC)C2 (configuration not stated),inactive,–
CCOCC(=O)Nc1c(C)n(C)n(-c2ccccc2)c1=O,"inconclusive: 39.8 µM [inhibitor, single point]",–
Nc1cc(S(=O)(=O)O)ccc1O,"inconclusive: 39.8 µM [inhibitor, single point]",–
N#Cc1c(-c2ccccc2)cc(-c2ccc(O)cc2)nc1N,inactive,–
O=C(O)CCCN1C(=O)/C(=C\C(Cl)=C\c2ccccc2)SC1=S,"inconclusive: 37.7 µM [inhibitor, single point]",–

# An excerpt of these results, bar-delimited.
Compound | Potency | activity change, negative = inhibition
Cc1cc(C(=O)CSc2nnc(-c3ccco3)o2)c(C)n1Cc1ccco1 | inconclusive: 31.6 µM [inhibitor, partial curve] | –
CC(C)(C)C(=O)Nc1ccc2oc(-c3cc(F)c(F)cc3Cl)nc2c1 | inconclusive: 0.0447 µM [inhibitor, full curve, poor fit] | –

# (listing goes on)

Compound,Potency,"activity change, negative = inhibition"
COc1ccc(C(=O)Oc2c(CN3CCOCC3)cc(Cl)c3cccnc23)cc1,inactive,–
O=C(NCCCN1CCOCC1)C(=O)N/N=C/c1c2ccccc2cc2ccccc12,inactive,–
S=c1[nH]cc(-c2ccccc2)[nH]1,"inconclusive: 7.94 µM [inhibitor, single point]",–
Cc1cc2cc(C(c3nnnn3Cc3ccco3)N3CCc4ccccc43)c(=O)[nH]c2cc1C (configuration not stated),"inconclusive: 39.8 µM [inhibitor, single point]",–
CN(C)CCCNC(=O)CCc1ncc(C(F)(F)F)cc1Cl,"inconclusive: 0.0316 µM [inhibitor, full curve, poor fit]",–
CCOC(=O)C(O)C1CCc2c([nH]c3ccc(C)cc23)C1=O (configuration not stated),"inconclusive: 44.7 µM [inhibitor, single point]",–
O=C(O)CCC(=O)N1CCc2cc(S(=O)(=O)NCc3ccc(Cl)cc3)ccc21,inactive,–
COC(=O)c1scc(C)c1NC(=O)/C=C/C(=O)O,"inconclusive: 7.94 µM [inhibitor, single point]",–
O=C(Nc1ccc2oc(-c3ccccc3F)nc2c1)c1ccc([N+](=O)[O-])o1,active: 2.67 µM,–
CSc1ccc(NC(=O)Nc2ccccc2C(N)=O)cc1,inconclusive: 0.0006 µM [inhibitor],–
COC(=O)CC1=COC(O)C2C(CO)=CC[C@@H]12 (some centres not stated),–,inactive: 0.913% [at 12.4 µM]
CC1CCc2nn(CC(=O)NCCCN3CCCCC3)cc2C1 (configuration not stated),"inconclusive: 44.7 µM [inhibitor, single point]",–
COCCn1c(CN2CCN(C)CC2)nc2c1c(=O)n(C)c(=O)n2C,"inconclusive: 44.7 µM [inhibitor, single point]",–
CC(C)(C)NC(=O)COC(=O)c1ccc(Cl)nc1,"inconclusive: 0.01 µM [inhibitor, full curve, poor fit]",–
COc1ccc(OC)c(NS(=O)(=O)c2cc3c4c(c2)CCN4C(=O)CC3)c1,inactive,–
CNCCCCc1cnc(C)c2[nH]c3ccccc3c12,"inconclusive: 15.8 µM [inhibitor, partial curve]",–
COc1ccc(S(=O)(=O)N2CCOCC2)cc1NC(=O)COC(=O)c1ccc([N+](=O)[O-])s1,"inconclusive: 23.8 µM [inhibitor, single point]",–
O=C(NCc1ccncc1)C1CCN(S(=O)(=O)Cc2ccccc2)CC1,"inconclusive: 44.7 µM [inhibitor, single point]",–
N=C1S/C(=C\c2ccco2)C(=O)N1c1nccs1,"inconclusive: 31.6 µM [inhibitor, single point]",–
Cc1cccc(N=C2NC(=O)S/C2=C\c2ccco2)c1,"inconclusive: 39.8 µM [inhibitor, single point]",–
C=CCn1c(SCC(=O)NCCO)nc2sc(C)c(C)c2c1=O,"inconclusive: 39.8 µM [inhibitor, single point]",–
CCOC(=O)Cc1csc(NC(=O)CSc2nnnn2-c2ccc(F)cc2)n1,inactive,–
CCN(CC)S(=O)(=O)c1ccc(/C=C/C(=O)OCC(=O)N(C(C)C)C(C)C)cc1,inactive,–

Compound,Potency,"activity change, negative = inhibition"
O=C(/C=C/c1ccco1)OCn1nnc2ccccc2c1=O,"inconclusive: 25.1 µM [inhibitor, partial curve]",–
Cc1nc(Nc2ccc(C(=O)O)cc2)nc(Nc2ccc(C(=O)O)cc2)c1[N+](=O)[O-],"inconclusive: 39.8 µM [inhibitor, single point]",–
CN1C(=O)S/C(=C/c2cccn2-c2cccc(C(=O)O)c2)C1=O,"inconclusive: 31.6 µM [inhibitor, partial curve]",–
CCOc1ccc2[nH]c(=O)c(CN(Cc3cccnc3)C(=O)Nc3ccccc3OC)cc2c1,"inconclusive: 0.02 µM [inhibitor, full curve, poor fit]",–
COc1ccc(O[C@H]2C=C[C@@H](c3ccccc3)O[C@H]2COC(=O)CC/C(C)=N\O[C@@H](C)c2cn([C@H]3COC[C@H]3O)nn2)cc1,–,inactive: 14.3% [at 12.4 µM]
Cc1cc2nc(CSc3ccc(Cl)cc3)cc(=O)n2[nH]1,"inconclusive: 44.7 µM [inhibitor, single point]",–
CC12C(=O)N(c3ccccc3C(=O)O)C(=O)C1C1C=CC2C1 (configuration not stated),"inconclusive: 35.5 µM [inhibitor, single point]",–
CCOC(=O)[C@@](C)(N)Cc1ccc(O)c(O)c1,inactive,–
C=CCOc1ccc(CNc2ccc3[nH]c(=O)[nH]c3c2)cc1OC,"inconclusive: 20 µM [inhibitor, single point]",–
CCc1ccc2c(CN(C)Cc3ccc(OC(F)F)c(OC)c3)cc(=O)oc2c1,"inconclusive: 8.44 µM [inhibitor, single point]",–
CCSc1nnc(NC(=O)Nc2cccc(C)c2)s1,"inconclusive: 0.0035 µM [inhibitor, full curve, poor fit]",–
Cc1cc(C)cc(C(=O)Nc2c3c(nn2C(C)(C)C)CS(=O)(=O)C3)c1,inactive,–
COCC(=O)N1CCc2nc(-c3ccccc3)c3c(c2C1)CO[C@@H](C)C3,–,inactive: 12.1% [at 12.4 µM]
C[C@H](NC(=O)Nc1cccc(C(F)(F)F)c1)C(=O)O,"inconclusive: 20 µM [inhibitor, single point]",–
CC(=O)c1nnn(-c2ccc(F)cc2F)c1C,"inconclusive: 3.16 µM [inhibitor, partial curve]",–
Cc1cccc(-c2ncc(CN3CCN(CC(C)C)C(CCO)C3)cn2)c1 (configuration not stated),"inconclusive: 8.91 µM [inhibitor, single point]",–
Cc1noc(C)c1-c1ccc2ncnc(NCc3ccc(-c4ccccc4)cc3)c2c1,"inconclusive: 44.7 µM [inhibitor, single point]",–
CC1=NN(c2ccc(N)cc2)C(=O)C1,"inconclusive: 39.8 µM [inhibitor, single point]",–
COc1ccc(-c2ccc(/C=N/NC(=O)c3cccnc3)o2)c([N+](=O)[O-])c1,"inconclusive: 5.01 µM [inhibitor, full curve, poor fit]",–
O=Cc1cn[nH]c1-c1cccc([N+](=O)[O-])c1,"inconclusive: 31.6 µM [inhibitor, partial curve, poor fit]",–
Nn1c(=O)[nH]c2ccccc2c1=O,"inconclusive: 17.8 µM [inhibitor, partial curve, poor fit]",–

# Part of the list above, bar-delimited:
Compound | Potency | activity change, negative = inhibition
CC(=O)c1nnn(-c2ccc(F)cc2F)c1C | inconclusive: 3.16 µM [inhibitor, partial curve] | –
Cc1cccc(-c2ncc(CN3CCN(CC(C)C)C(CCO)C3)cn2)c1 (configuration not stated) | inconclusive: 8.91 µM [inhibitor, single point] | –
Cc1noc(C)c1-c1ccc2ncnc(NCc3ccc(-c4ccccc4)cc3)c2c1 | inconclusive: 44.7 µM [inhibitor, single point] | –
